Results are given in words; binding and its absence hold for the method and conditions named. Binding seen in cells or lysates may run through a third protein. Some results given as binding are weak or reduced against the parent protein; the word gives no strength.

Test [1] concerns the target Flag-tagged wild-type PINCH1 (pFlag-PINCH1-wt) (UniProt P48059). Briefly: co-IP; human podocytes transfected with Flag-PINCH1 for 48 h; lysates immunoprecipitated with anti-Flag overnight at 4°C, blotted for endogenous WT1.
Test [2] addresses endogenous WT1 (human (endogenous in human podocytes)) (UniProt P19544). Briefly: co-IP; endogenous proteins; human podocytes treated with TGF-β1 (2 ng/ml) for 24 h; lysates immunoprecipitated with anti-WT1, blotted with anti-PINCH1.

Regarding “endogenous WT1 (from UniProt P19544 1-449)”, the binding entry in test [1] is listed as “binds”.

In the case of “endogenous PINCH1 (from UniProt P48059 1-325)”, the binding result in test [2] was “binds”.

The record behind these values is PMC3044754.
